{"source": "paper PMC4104028", "binders": {"B1": {"name": "FLAG-Atg16L2 (protein, UniProt Q6KAU8 1-623)", "chain": "MAGPGAPCDPCAPAAVWKRHIVRQLRHRDRTQKALFLELVPAYNHLLEKAELLAKFSEKLKSEPKDAISTRHEDWREEVSGTGPDQVSSPASLRVKWQQEKKGLQLVCGEMAYQVVKKSAALDTLQSQLEERQDRLEALQACVVQLQEARAQQSRQLEERQAENAAQREAYETLLQQAVHQEAALRRLQEEARDLLEQLVQRKARAAAERNLRNERRERANQALVSQELKKAAKRTVSISEIPNTLEDGTKEETVALAPAALPEFSESETCEKWKRPFRSASATSLTLSRCVDVVKGLLDFKKRRGHSVGGAPEQRYQSIPVCVSAQIPSQAQDVLDAHLSEVNAVCFGPNSSLLATGGADRLIHLWNVVGGRLEANQTLEGAGGSITSVDFDPSGSQVLAATYNQAAQLWKVGETQSKETLSGHKDKVTAAKFKLTRHQAVTGSRDRTVKEWDLGRAYCSRTINVLSYCNDVVCGDHIIISGHNDQKIRFWDSRGPHCIQVIPVQGRVTSLHLSYDQLHLLSCSRDNTLKVIDLRISNIRQVFRADGFKCSSDWTKAVFSPDRSYALAGSSNGDLYIWDVNTGKLETSLQGPHCTAVNAVAWCFSGNHVVSVDQGRKVVLWH"}}, "target": "GFP-WIPI2b", "assay": "co-IP; lysates of HEK293A cells expressing GFP-tagged WIPI proteins mixed with lysates of HEK293A cells expressing FLAG-Atg16L1, its mutants or Atg16L2; GFP-TRAP; immunoblot", "note": "These are yes or no findings as the source states them, for the method shown. Binding seen in cells or lysates may run through a third protein. Where a sequence is shown, tags or fusion partners need not be part of it."}
{"binder": "B1", "values": [{"measurement": "binding", "value": "no binding"}]}
